Experimental data published in US10717731B2, “Nitrogen-containing aromatic heterocyclic compound” (MITSUBISHI TANABE PHARMA CORPORATION, priority 2015, dated 2020).

Chains of the proteins cited; added tags and fusions are not shown. Residues count along the entry.
UniProt P19099, 25-503 limits assumed: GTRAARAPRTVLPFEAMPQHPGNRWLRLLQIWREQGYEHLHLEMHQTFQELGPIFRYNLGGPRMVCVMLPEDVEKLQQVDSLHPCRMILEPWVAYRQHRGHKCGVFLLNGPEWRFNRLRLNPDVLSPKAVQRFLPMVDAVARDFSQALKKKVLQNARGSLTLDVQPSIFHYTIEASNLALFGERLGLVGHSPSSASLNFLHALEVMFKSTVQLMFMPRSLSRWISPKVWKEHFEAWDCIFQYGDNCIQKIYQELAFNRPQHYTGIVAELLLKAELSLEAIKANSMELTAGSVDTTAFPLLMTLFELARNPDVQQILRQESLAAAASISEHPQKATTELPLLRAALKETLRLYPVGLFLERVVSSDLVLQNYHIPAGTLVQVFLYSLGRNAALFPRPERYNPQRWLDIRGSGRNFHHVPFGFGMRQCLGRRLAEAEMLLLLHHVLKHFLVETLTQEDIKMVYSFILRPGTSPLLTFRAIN

The compounds below were run against human CYP11B2 (Homo sapiens, UniProt P19099) (assay: Inhibitory effect on hCYP11B2: aldosterone production in mitochondrial fraction of V79 cells stably expressing human CYP11B2, HTRF). Conditions: read-out: hCyp11B2 IC50; 0.5 μmol/L deoxycorticosterone, 150 μmol/L NADPH, 1.5-2 hours at room temperature.
Type: biochemical
Procedure: Experimental Example 1 (Inhibitory Effect on hCYP11B2)
The pcDNA3.1-human CYP11B2 plasmid was transfected into a Chinese hamster lung fibroblast V79 cell line to produce a cell line stably expressing human CYP11B2 gene.
The cells were cultured and grown in the Dulbecco's modified Eagle's/Ham's medium supplemented with 10% fetal bovine serum and 1% G418 disulfate solution under the environment of 37° C., 95% air, and 5% CO2, and the grown cells were harvested.
Then, the cells were fractionated to obtain mitochondria by reference to a method described in Chabre et al. JCE & M 85 (11) 4060-68, 2000. In particular, the cells suspended in a 5 mmol/L Tris-HCl buffer (pH 7.4) containing 250 mmol/L sucrose were homogenized in a Teflon (Registered Trademark) Potter Elvehjem homogenizer, and then the suspension was centrifuged (800×g, 15 min.). The supernatant was separated and again centrifuged (10000×g, 15 min.) to obtain a pellet (mitochondrial fraction).
The mitochondrial fraction diluted with a buffer containing 10 mmol/L KH2PO4, 10 mmol/L Tris, 20 mmol/L KCl, 25 mmol/L sucrose, 5 mmol/L MgCl2, and 0.05% bovine serum albumin was dispensed to a 96-well plate. 0.5 μmol/L Deoxycorticosterone, 150 μmol/L NADPH and a compound of each concentration were added to each well, and incubated for 1.5-2 hours at room temperature to produce aldosterone. An amount of the produced aldosterone in the incubated solution was determined by using HTRF (Homogeneous Time Resolved Fluorescence) method.
IC50 (nmol/L) was calculated by analyzing the aldosterone production inhibition rate (%) of each concentration of compounds by non-linear regression to a logistic curve.

| SMILES | IC50 |
| --- | --- |
| C[C@H](O)CNC(=O)CN1CCN(c2cncc(-c3ccc4cnn(C)c4c3)n2)CC1 [Example 18] | 15 nM |
| CC(=O)N[C@H]1CC[C@@H](NC(=O)CN2CCN(c3cncc(-c4ccc(C)cc4)c3)CC2)CC1 | 5.8 nM |
| Cc1ccc(-c2cncc(N3CCN(CC(=O)Nc4cnn(CC(=O)N(C)C)c4)CC3)n2)cc1 | 9 nM |
| O=C(CN1CCN(c2cncc(-c3ccc(Cl)cc3)c2)CC1)N[C@H]1CC[C@@H](N2CCC(O)CC2)CC1 | 8.8 nM |
| CNC(=O)Cn1cc(NC(=O)CN2CCN(c3cncc(-c4ccc(Cl)cc4)c3)CC2)cn1 | 3 nM |
| CC(C)NC(=O)CN1CCN(c2cncc(-c3ccc(C(F)(F)F)nc3)c2)CC1 | 100 nM |
| CN1C2CCC1CC(NC(=O)CN1CCN(c3cncc(-c4ccc(Cl)cc4)c3)CC1)C2 (stereo not shown) | 3.3 nM |

Structures were worked out from names or drawings and are uncertain.
